Measurements published in patent publication US20230382910A1, “HETEROARYL COMPOUNDS FOR THE TREATMENT OF PAIN” (VERTEX PHARMACEUTICALS INCORPORATED, priority 2022, published 2023).
Some of these results come from one statement about several compounds together.

Protein sequences, listed by entry. Tags and fused reporters are not part of them. Residues count along the entry.
UniProt Q9Y5Y9, 660-890 limits assumed: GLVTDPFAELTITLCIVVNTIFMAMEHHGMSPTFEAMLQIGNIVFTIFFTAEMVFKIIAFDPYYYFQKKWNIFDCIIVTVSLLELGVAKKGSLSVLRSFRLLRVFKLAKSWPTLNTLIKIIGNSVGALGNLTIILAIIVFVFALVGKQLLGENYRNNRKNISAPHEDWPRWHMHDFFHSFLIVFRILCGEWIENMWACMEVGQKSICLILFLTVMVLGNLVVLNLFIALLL
UniProt Q9Y5Y9, 1148-1722 limits assumed: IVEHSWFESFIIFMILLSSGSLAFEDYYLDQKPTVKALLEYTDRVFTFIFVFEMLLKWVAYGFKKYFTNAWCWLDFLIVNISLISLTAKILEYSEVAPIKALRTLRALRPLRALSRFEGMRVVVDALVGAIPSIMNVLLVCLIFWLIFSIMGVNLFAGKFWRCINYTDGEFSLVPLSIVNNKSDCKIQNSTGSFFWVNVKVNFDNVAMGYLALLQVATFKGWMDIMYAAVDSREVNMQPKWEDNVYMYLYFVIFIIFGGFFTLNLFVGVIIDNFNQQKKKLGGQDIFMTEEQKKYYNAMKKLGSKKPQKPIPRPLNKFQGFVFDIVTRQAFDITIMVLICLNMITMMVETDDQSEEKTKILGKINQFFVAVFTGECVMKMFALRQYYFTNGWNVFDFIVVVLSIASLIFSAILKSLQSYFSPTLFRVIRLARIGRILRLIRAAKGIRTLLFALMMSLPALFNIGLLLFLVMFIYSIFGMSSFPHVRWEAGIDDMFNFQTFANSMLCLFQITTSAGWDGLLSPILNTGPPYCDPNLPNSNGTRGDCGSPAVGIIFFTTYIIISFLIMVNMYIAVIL
UniProt Q9Y5Y9, 126-399 limits assumed: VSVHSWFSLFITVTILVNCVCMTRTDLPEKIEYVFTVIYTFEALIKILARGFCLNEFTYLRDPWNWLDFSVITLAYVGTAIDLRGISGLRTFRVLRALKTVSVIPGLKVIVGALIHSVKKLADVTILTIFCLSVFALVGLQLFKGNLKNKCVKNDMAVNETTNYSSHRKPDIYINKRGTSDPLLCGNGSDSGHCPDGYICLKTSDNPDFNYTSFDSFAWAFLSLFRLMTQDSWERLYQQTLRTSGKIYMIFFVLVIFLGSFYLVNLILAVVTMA

Target: human NaV 1.8 (Homo sapiens, UniProt Q9Y5Y9)
Experiment: E-VIPR Assay Detecting and Measuring NaV Inhibition Properties
Assay type: cell-based
Details: HEK cells expressing a truncated form of human NaV 1.8; electrical stimulation, membrane potential FRET dyes; read-out: measured IC50 value in the E-VIPR Assay

SMILES | IC50 [nM]
Cc1cc(C(C)(C)C)ccc1-c1cc(=O)c2c(C(N)=O)cccc2[nH]1 [Compound 344, 2-(4-tert-butyl-2-methyl-phenyl)-4-oxo-1H-quinoline-5-carboxamide] | < 500
Cc1cc(C(C)(C)C)ccc1-c1cc(=O)c2c(F)cc(F)cc2[nH]1 [Compound 345, 2-(4-tert-butyl-2-methyl-phenyl)-5,7-difluoro-1H-quinolin-4-one] | < 500
COc1c(-c2ccc(C(C)(C)C)cc2C)[nH]c2ccnc(C(N)=O)c2c1=O [Compound 348, 2-(4-tert-butyl-2-methyl-phenyl)-3-methoxy-4-oxo-1H-1,6-naphthyridine-5-carboxamide] | < 500
CCOc1c(-c2ccc(C(C)(C)C)cc2C)[nH]c2ccnc(C(N)=O)c2c1=O [Compound 349, 2-(4-tert-butyl-2-methyl-phenyl)-3-ethoxy-4-oxo-1H-1,6-naphthyridine-5-carboxamide] | < 500
Cc1cc(C(C)(C)C)ccc1-c1cc(=O)c2c(O)cccc2[nH]1 [Compound 350, 2-(4-tert-butyl-2-methyl-phenyl)-5-hydroxy-1H-quinolin-4-one] | < 500
CCCCN(C)c1nc2ccccc2cc1-c1cc(=O)c2c(C(N)=O)nccc2[nH]1 [Compound 354, 2-[2-[butyl(methyl)amino]-3-quinolyl]-4-oxo-1H-1,6-naphthyridine-5-carboxamide] | < 500
CN(C)c1nc2ccccc2cc1-c1cc(=O)c2c(C(N)=O)nccc2[nH]1 [Compound 355, 2-[2-(dimethylamino)-3-quinolyl]-4-oxo-1H-1,6-naphthyridine-5-carboxamide] | ≥ 5000
Cc1cc(C(C)(C)C(F)(F)F)c(Cl)cc1-c1cc(=O)c2c(C(N)=O)nccc2[nH]1 [Compound 357, 2-[5-chloro-2-methyl-4-(2,2,2-trifluoro-1,1-dimethyl-ethyl)phenyl]-4-oxo-1H-1,6-naphthyridine-5-carboxamide] | < 500
Cc1nc(C(C)(C)C)c(Cl)cc1-c1cc(=O)c2c(C(N)=O)nccc2[nH]1 [Compound 358, 2-(6-tert-butyl-5-chloro-2-methyl-3-pyridyl)-4-oxo-1H-1,6-naphthyridine-5-carboxamide] | < 500
Cc1cc(C2C3CC4CC(C3)CC2C4)c(Cl)cc1-c1cc(=O)c2c(C(N)=O)nccc2[nH]1 (centres unmarked) [Compound 360, 2-[4-(2-adamantyl)-5-chloro-2-methyl-phenyl]-4-oxo-1H-1,6-naphthyridine-5-carboxamide] | < 500
Cc1cc(CC(C)(C)F)c(Cl)cc1-c1cc(=O)c2c(C(N)=O)nccc2[nH]1 [Compound 361, 2-[5-chloro-4-(2-fluoro-2-methyl-propyl)-2-methyl-phenyl]-4-oxo-1H-1,6-naphthyridine-5-carboxamide] | < 500
Cc1cc(C(C)(C)C(=O)O)c(C(F)(F)F)cc1-c1cc(=O)c2c(C(N)=O)nccc2[nH]1 [Compound 364, 2-[4-(5-carbamoyl-4-oxo-1H-1,6-naphthyridin-2-yl)-5-methyl-2-(trifluoromethyl)phenyl]-2-methyl-propanoic acid] | ≥ 5000
COc1nccc2[nH]c(-c3cc(Cl)c(C(C)(C)C)cc3C)cc(=O)c12 [Compound 368, 2-(4-tert-butyl-5-chloro-2-methyl-phenyl)-5-methoxy-1H-1,6-naphthyridin-4-one] | < 500
Cc1cc(C(C)(C)C)c(Cl)cc1-c1cc(=O)c2c(NC(N)=O)nccc2[nH]1 [Compound 369, [2-(4-tert-butyl-5-chloro-2-methyl-phenyl)-4-oxo-1H-1,6-naphthyridin-5-yl]urea] | < 500
Cc1cc(C(C)(C)C)c(Cl)cc1-c1cc(=O)c2c(O)nccc2[nH]1 [Compound 370, 2-(4-tert-butyl-5-chloro-2-methyl-phenyl)-5-hydroxy-1H-1,6-naphthyridin-4-one] | < 500
CNC(=O)Nc1nccc2[nH]c(-c3cc(Cl)c(C(C)(C)C)cc3C)cc(=O)c12 [Compound 371, 1-[2-(4-tert-butyl-5-chloro-2-methyl-phenyl)-4-oxo-1H-1,6-naphthyridin-5-yl]-3-methyl-urea] | < 500
CNC(=O)c1nccc2[nH]c(-c3cc(Cl)c(C(C)(C)C)cc3C)cc(=O)c12 [Compound 372, 2-(4-tert-butyl-5-chloro-2-methyl-phenyl)-N-methyl-4-oxo-1H-1,6-naphthyridine-5-carboxamide] | < 500
Cc1cc(C(C)(C)C)c(Cl)cc1-c1cc(=O)c2c(N(C)C)nccc2[nH]1 [Compound 373, 2-(4-tert-butyl-5-chloro-2-methyl-phenyl)-5-(dimethylamino)-1H-1,6-naphthyridin-4-one] | < 500
Cc1cc(C(C)(C)C)c(Cl)cc1-c1cc(=O)c2c(C(=N)N)nccc2[nH]1 [Compound 374, 2-(4-tert-butyl-5-chloro-2-methyl-phenyl)-4-oxo-1H-1,6-naphthyridine-5-carboxamidine] | < 500

SMILES | IC50 [nM]
Cc1cc(C(C)(C)C)c(Cl)cc1-c1[nH]c2c(C)cncc2c(=O)c1C(=O)O [Compound 375, 2-(4-tert-butyl-5-chloro-2-methyl-phenyl)-8-methyl-4-oxo-1H-1,6-naphthyridine-3-carboxylic acid] | ≥ 5000
Cc1cc(C(C)(C)C)c(Cl)cc1-c1cc(=O)c2cncc(C)c2[nH]1 [Compound 376, 2-(4-tert-butyl-5-chloro-2-methyl-phenyl)-8-methyl-1H-1,6-naphthyridin-4-one] | < 500
Cc1cc(C(C)(C)C)c(Cl)cc1-c1cc(=O)c2c(C(N)=O)ncc(C)c2[nH]1 [Compound 377, 2-(4-tert-butyl-5-chloro-2-methyl-phenyl)-8-methyl-4-oxo-1H-1,6-naphthyridine-5-carboxamide] | < 500
Cc1cc(C(C)(C)C)c(Cl)cc1-c1cc(=O)c2c(-c3nccn3C)nccc2[nH]1 [Compound 378, 2-(4-tert-butyl-5-chloro-2-methyl-phenyl)-5-(1-methylimidazol-2-yl)-1H-1,6-naphthyridin-4-one] | < 500
Cc1nc(C(C)(C)C)c(Cl)cc1-c1cc(=O)c2c(-c3nccn3C)nccc2[nH]1 [Compound 379, 2-(6-tert-butyl-5-chloro-2-methyl-3-pyridyl)-5-(1-methylimidazol-2-y1)-1H-1,6-naphthyridin-4-one] | < 500
Cc1cc(C(C)(C)C)c(Cl)cc1-c1cc(=O)c2c(-c3ncco3)cccc2[nH]1 [Compound 380, 2-(4-tert-buty1-5-chloro-2-methyl-phenyl)-5-oxazol-2-y1-1H-quinolin-4-one] | < 500
Cc1cc(C(C)(C)C)c(Cl)cc1-c1cc(=O)c2c(-c3ncc(Cl)n3C)nccc2[nH]1 [Compound 381, 2-(4-tert-butyl-5-chloro-2-methyl-phenyl)-5-(5-chloro-1-methyl-imidazol-2-yl)-1H-1,6-naphthyridin-4-one] | < 500
Cc1cc(C(C)(C)C)c(Cl)cc1-c1cc(=O)c2c(-c3ccccn3)nccc2[nH]1 [Compound 382, 2-(4-tert-butyl-5-chloro-2-methyl-phenyl)-5-(2-pyridyl)-1H-1,6-naphthyridin-4-one] | < 500
Cc1cc(C(C)(C)C)c(Cl)cc1-c1cc(=O)c2c(-c3ncccc3C)nccc2[nH]1 [Compound 383, 2-(4-tert-butyl-5-chloro-2-methyl-phenyl)-5-(3-methyl-2-pyridyl)-1H-1,6-naphthyridin-4-one] | < 500
Cc1cc(C(C)(C)C)c(Cl)cc1-c1cc(=O)c2c(-c3cnccn3)nccc2[nH]1 [Compound 384, 2-(4-tert-butyl-5-chloro-2-methyl-phenyl)-5-pyrazin-2-y1-1H-1,6-naphthyridin-4-one] | < 500
Cc1cccc(-c2nccc3[nH]c(-c4cc(Cl)c(C(C)(C)C)cc4C)cc(=O)c23)n1 [Compound 385, 2-(4-tert-butyl-5-chloro-2-methyl-phenyl)-5-(6-methyl-2-pyridyl)-1H-1,6-naphthyridin-4-one] | < 500
Cc1cc(C(C)(C)C)c(Cl)cc1-c1cc(=O)c2c(-c3ocnc3C)nccc2[nH]1 [Compound 386, 2-(4-tert-butyl-5-chloro-2-methyl-phenyl)-5-(4-methyloxazol-5-yl)-1H-1,6-naphthyridin-4-one] | < 500
Cc1cc(C(C)(C)C)c(Cl)cc1-c1cc(=O)c2c(-c3n[nH]cc3C)nccc2[nH]1 [Compound 387, 2-(4-tert-butyl-5-chloro-2-methyl-phenyl)-5-(4-methyl-1H-pyrazol-3-yl)-1H-1,6-naphthyridin-4-one] | < 500
Cc1cc(C(C)(C)C)c(Cl)cc1-c1cc(=O)c2c(-c3nnn(C)c3C)nccc2[nH]1 [Compound 388, 2-(4-tert-butyl-5-chloro-2-methyl-phenyl)-5-(1,5-dimethyltriazol-4-yl)-1H-1,6-naphthyridin-4-one] | < 500
Cc1nc(C)c(-c2nccc3[nH]c(-c4cc(Cl)c(C(C)(C)C)cc4C)cc(=O)c23)o1 [Compound 389, 2-(4-tert-butyl-5-chloro-2-methyl-phenyl)-5-(2,4-dimethyloxazol-5-yl)-1H-1,6-naphthyridin-4-one] | < 500
Cc1nc(-c2nccc3[nH]c(-c4cc(Cl)c(C(C)(C)C)cc4C)cc(=O)c23)c(C)s1 [Compound 391, 2-(4-tert-butyl-5-chloro-2-methyl-phenyl)-5-(2,5-dimethylthiazol-4-yl)-1H-1,6-naphthyridin-4-one] | < 500
Cc1cc(C(C)(C)C)c(Cl)cc1-c1cc(=O)c2c(-c3ccn(C(F)(F)F)n3)nccc2[nH]1 [Compound 392, 2-(4-tert-butyl-5-chloro-2-methyl-phenyl)-5-[1-(trifluoromethyl)pyrazol-3-yl]-1H-1,6-naphthyridin-4-one] | < 500
Cc1cc(C)n(-c2nccc3[nH]c(-c4cc(Cl)c(C(C)(C)C)cc4C)cc(=O)c23)n1 [Compound 393, 2-(4-tert-butyl-5-chloro-2-methyl-phenyl)-5-(3,5-dimethylpyrazol-1-yl)-1H-1,6-naphthyridin-4-one] | < 500
Cc1cc(C(C)(C)C)c(Cl)cc1-c1cc(=O)c2c(-n3nccc3C(F)(F)F)nccc2[nH]1 [Compound 394, 2-(4-tert-butyl-5-chloro-2-methyl-phenyl)-5-[5-(trifluoromethyl)pyrazol-1-yl]-1H-1,6-naphthyridin-4-one] | < 500
